Results are given in words; binding and its absence hold for the method and conditions named. Binding seen in cells or lysates may run through a third protein. Some results given as binding are weak or reduced against the parent protein; the word gives no strength.
Key:
[1] = target: MTA1-flag (metastasis-associated protein 1, flag-tagged) (UniProt Q13330); assay: co-IP; nuclear and cytoplasmic fractions of HCT116-M1 and HCT116-M3 cells; 1 mg lysate with 1-2 ug primary antibody overnight at 4°C, protein A/G PLUS-agarose 2 h at 4°C, washed with NP-40 buffer (50 mM Tris-HCl pH 8.0, 0.5% NP-40, 150 mM NaCl); Western blot
[2] = target: Metastasis-associated protein 1 (MTA1), endogenous (human (endogenous in HCT116)) (UniProt Q13330); assay: proximity ligation; in situ PLA (Duolink) in fixed HCT116 cells; mouse anti-MTA1 and rabbit anti-HDAC2; control with rabbit IgG
[3] = target: Metastasis-associated protein 1 (MTA1), endogenous (human (endogenous in HCT116)) (UniProt Q13330); assay: co-IP; cell lysate (cells not stated); 1-2 ug primary antibody overnight at 4°C, protein A/G PLUS-agarose, washed with NP-40 buffer (150 mM NaCl, pH 8.0); Western blot

By UniProt entry, the sequences of proteins in these tests, tags left out.
UniProt Q13330: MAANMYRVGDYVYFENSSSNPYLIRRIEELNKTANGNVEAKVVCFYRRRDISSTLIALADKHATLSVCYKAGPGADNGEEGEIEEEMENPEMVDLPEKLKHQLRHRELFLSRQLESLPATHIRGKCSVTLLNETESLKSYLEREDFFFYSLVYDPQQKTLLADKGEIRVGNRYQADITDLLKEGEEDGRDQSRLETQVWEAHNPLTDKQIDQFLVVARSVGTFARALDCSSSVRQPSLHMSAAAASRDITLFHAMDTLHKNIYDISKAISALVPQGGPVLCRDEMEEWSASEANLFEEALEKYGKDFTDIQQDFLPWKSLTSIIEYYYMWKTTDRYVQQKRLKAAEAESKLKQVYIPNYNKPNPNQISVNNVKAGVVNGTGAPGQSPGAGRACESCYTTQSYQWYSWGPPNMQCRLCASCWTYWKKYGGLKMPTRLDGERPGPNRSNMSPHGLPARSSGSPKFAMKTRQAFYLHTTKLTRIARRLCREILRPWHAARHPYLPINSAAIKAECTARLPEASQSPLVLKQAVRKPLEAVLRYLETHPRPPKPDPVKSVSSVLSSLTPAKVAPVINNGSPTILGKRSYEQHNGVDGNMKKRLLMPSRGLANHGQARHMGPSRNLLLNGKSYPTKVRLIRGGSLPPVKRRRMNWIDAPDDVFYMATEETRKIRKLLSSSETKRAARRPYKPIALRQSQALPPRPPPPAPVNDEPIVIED
UniProt Q92769: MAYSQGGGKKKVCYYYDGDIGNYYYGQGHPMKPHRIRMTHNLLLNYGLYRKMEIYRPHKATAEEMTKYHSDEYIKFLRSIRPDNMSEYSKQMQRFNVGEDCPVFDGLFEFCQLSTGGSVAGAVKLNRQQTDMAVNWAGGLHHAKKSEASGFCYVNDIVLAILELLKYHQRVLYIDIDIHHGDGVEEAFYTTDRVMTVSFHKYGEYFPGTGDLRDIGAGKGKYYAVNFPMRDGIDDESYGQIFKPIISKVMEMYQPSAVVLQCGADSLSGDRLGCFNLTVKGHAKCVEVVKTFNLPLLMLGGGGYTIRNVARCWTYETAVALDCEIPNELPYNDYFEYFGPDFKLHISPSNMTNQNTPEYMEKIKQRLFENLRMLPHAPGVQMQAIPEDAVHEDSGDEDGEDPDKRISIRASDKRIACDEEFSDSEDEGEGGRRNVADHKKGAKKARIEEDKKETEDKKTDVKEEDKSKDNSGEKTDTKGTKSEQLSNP
UniProt P12270: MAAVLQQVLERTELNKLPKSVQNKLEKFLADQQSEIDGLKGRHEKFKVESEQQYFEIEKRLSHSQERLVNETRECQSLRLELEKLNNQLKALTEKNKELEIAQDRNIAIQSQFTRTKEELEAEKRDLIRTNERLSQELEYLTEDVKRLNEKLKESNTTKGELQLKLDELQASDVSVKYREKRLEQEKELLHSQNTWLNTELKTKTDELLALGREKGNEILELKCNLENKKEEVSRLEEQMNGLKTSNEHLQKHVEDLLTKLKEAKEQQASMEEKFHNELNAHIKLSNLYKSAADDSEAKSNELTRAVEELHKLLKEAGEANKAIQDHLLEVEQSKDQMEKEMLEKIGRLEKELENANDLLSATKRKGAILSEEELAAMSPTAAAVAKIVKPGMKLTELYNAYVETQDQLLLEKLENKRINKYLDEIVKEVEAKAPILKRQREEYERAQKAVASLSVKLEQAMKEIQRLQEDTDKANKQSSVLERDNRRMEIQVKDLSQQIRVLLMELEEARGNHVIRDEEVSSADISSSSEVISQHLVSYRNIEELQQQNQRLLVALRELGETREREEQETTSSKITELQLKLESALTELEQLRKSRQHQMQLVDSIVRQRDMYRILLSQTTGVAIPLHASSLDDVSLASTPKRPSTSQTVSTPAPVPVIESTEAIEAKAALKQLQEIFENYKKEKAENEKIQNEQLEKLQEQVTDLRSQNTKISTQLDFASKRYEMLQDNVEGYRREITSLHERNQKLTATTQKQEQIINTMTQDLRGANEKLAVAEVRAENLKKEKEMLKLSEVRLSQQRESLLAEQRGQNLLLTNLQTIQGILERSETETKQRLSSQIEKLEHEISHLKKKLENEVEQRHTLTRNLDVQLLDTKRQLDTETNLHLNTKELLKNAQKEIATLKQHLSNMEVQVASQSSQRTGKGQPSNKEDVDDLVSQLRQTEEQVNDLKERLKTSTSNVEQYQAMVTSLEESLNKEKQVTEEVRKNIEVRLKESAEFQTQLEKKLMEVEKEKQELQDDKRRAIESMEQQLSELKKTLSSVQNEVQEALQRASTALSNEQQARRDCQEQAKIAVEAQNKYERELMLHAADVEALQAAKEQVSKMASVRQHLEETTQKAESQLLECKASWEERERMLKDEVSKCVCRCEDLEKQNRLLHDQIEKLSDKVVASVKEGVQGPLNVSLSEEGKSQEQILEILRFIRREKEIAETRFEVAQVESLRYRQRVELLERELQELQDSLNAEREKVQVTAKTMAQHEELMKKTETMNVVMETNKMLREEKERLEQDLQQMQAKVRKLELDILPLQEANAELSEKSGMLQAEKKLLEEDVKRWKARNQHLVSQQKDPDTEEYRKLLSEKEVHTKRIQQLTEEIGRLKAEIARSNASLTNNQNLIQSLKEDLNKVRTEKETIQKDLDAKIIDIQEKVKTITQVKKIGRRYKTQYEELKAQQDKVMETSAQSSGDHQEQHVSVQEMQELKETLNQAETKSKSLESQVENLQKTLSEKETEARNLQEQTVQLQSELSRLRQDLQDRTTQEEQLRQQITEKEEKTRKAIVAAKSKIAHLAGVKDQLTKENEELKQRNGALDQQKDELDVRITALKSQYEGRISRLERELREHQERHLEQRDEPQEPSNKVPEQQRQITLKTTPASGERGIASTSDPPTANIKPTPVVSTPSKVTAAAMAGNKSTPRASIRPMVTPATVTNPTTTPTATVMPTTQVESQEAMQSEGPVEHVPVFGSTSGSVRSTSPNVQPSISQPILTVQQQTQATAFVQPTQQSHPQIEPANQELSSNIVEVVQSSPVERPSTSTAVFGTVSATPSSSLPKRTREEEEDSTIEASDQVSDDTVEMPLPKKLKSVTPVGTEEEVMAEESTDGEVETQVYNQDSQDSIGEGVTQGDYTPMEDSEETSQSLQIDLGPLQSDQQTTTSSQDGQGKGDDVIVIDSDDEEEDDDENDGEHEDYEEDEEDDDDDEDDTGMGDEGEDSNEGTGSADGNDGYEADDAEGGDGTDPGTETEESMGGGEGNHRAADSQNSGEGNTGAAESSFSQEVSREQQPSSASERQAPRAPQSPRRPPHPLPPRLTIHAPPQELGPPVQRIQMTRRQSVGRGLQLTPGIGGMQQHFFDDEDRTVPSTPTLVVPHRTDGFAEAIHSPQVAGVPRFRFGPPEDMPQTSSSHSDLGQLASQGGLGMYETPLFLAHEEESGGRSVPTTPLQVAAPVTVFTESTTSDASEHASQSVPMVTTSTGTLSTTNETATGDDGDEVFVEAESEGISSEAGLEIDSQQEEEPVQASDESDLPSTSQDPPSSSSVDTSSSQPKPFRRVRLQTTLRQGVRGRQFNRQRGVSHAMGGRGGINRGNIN

binding [1] | binding [2] | binding [3] | Substance
binds | binds | – | Histone deacetylase 2 (HDAC2) (from UniProt Q92769 1-488)
– | – | binds | nucleoporin TPR (translocated promoter region) (from UniProt P12270 1-2363)
